Assay results from article PMC7239482.
Results are given in words; binding and its absence hold for the method and conditions named. Binding seen in cells or lysates may run through a third protein. For some assays here: Binding can be weak; no strength is given. For some assays here: Where a sequence is shown, tags or fusion partners need not be part of it.

T1: GST-SID-3 (C. elegans) (UniProt Q10925)
T1 sequence: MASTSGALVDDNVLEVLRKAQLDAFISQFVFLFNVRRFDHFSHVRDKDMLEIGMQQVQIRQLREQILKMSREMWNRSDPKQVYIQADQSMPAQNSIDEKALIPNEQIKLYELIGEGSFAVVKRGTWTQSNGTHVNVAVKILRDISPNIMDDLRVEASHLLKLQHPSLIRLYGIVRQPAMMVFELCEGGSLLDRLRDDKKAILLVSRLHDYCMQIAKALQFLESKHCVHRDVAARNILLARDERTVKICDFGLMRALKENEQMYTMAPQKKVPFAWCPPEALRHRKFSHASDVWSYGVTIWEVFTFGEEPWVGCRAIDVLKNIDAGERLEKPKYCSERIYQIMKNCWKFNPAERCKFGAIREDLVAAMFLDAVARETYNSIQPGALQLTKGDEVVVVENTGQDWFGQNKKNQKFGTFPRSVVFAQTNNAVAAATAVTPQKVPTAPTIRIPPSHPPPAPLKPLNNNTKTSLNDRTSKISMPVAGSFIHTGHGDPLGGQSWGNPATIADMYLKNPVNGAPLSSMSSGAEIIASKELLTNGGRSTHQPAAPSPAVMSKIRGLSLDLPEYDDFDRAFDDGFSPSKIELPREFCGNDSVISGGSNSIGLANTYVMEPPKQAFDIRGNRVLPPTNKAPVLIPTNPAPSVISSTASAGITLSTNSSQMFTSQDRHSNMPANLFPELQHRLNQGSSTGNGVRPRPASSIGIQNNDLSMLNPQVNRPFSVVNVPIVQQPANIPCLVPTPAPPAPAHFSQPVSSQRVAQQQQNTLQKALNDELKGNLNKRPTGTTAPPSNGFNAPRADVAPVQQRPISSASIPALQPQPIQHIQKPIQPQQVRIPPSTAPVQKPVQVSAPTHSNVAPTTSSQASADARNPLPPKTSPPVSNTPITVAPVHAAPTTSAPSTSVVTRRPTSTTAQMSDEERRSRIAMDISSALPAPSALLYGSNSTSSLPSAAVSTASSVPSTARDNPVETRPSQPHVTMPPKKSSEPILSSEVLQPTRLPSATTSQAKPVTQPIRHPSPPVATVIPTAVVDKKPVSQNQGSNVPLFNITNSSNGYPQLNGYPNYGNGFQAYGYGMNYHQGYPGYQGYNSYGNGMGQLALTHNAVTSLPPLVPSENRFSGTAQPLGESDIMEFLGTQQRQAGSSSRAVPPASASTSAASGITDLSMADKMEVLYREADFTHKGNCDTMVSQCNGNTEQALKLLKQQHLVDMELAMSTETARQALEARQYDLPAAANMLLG

B1: SID-3-mCherry (protein, UniProt Q10925 1-1237)
chain: MASTSGALVDDNVLEVLRKAQLDAFISQFVFLFNVRRFDHFSHVRDKDMLEIGMQQVQIRQLREQILKMSREMWNRSDPKQVYIQADQSMPAQNSIDEKALIPNEQIKLYELIGEGSFAVVKRGTWTQSNGTHVNVAVKILRDISPNIMDDLRVEASHLLKLQHPSLIRLYGIVRQPAMMVFELCEGGSLLDRLRDDKKAILLVSRLHDYCMQIAKALQFLESKHCVHRDVAARNILLARDERTVKICDFGLMRALKENEQMYTMAPQKKVPFAWCPPEALRHRKFSHASDVWSYGVTIWEVFTFGEEPWVGCRAIDVLKNIDAGERLEKPKYCSERIYQIMKNCWKFNPAERCKFGAIREDLVAAMFLDAVARETYNSIQPGALQLTKGDEVVVVENTGQDWFGQNKKNQKFGTFPRSVVFAQTNNAVAAATAVTPQKVPTAPTIRIPPSHPPPAPLKPLNNNTKTSLNDRTSKISMPVAGSFIHTGHGDPLGGQSWGNPATIADMYLKNPVNGAPLSSMSSGAEIIASKELLTNGGRSTHQPAAPSPAVMSKIRGLSLDLPEYDDFDRAFDDGFSPSKIELPREFCGNDSVISGGSNSIGLANTYVMEPPKQAFDIRGNRVLPPTNKAPVLIPTNPAPSVISSTASAGITLSTNSSQMFTSQDRHSNMPANLFPELQHRLNQGSSTGNGVRPRPASSIGIQNNDLSMLNPQVNRPFSVVNVPIVQQPANIPCLVPTPAPPAPAHFSQPVSSQRVAQQQQNTLQKALNDELKGNLNKRPTGTTAPPSNGFNAPRADVAPVQQRPISSASIPALQPQPIQHIQKPIQPQQVRIPPSTAPVQKPVQVSAPTHSNVAPTTSSQASADARNPLPPKTSPPVSNTPITVAPVHAAPTTSAPSTSVVTRRPTSTTAQMSDEERRSRIAMDISSALPAPSALLYGSNSTSSLPSAAVSTASSVPSTARDNPVETRPSQPHVTMPPKKSSEPILSSEVLQPTRLPSATTSQAKPVTQPIRHPSPPVATVIPTAVVDKKPVSQNQGSNVPLFNITNSSNGYPQLNGYPNYGNGFQAYGYGMNYHQGYPGYQGYNSYGNGMGQLALTHNAVTSLPPLVPSENRFSGTAQPLGESDIMEFLGTQQRQAGSSSRAVPPASASTSAASGITDLSMADKMEVLYREADFTHKGNCDTMVSQCNGNTEQALKLLKQQHLVDMELAMSTETARQALEARQYDLPAAANMLLG
B2: HA-SID-3(aa 1–544) (domain or fragment, UniProt Q10925 1-544)
chain: MASTSGALVDDNVLEVLRKAQLDAFISQFVFLFNVRRFDHFSHVRDKDMLEIGMQQVQIRQLREQILKMSREMWNRSDPKQVYIQADQSMPAQNSIDEKALIPNEQIKLYELIGEGSFAVVKRGTWTQSNGTHVNVAVKILRDISPNIMDDLRVEASHLLKLQHPSLIRLYGIVRQPAMMVFELCEGGSLLDRLRDDKKAILLVSRLHDYCMQIAKALQFLESKHCVHRDVAARNILLARDERTVKICDFGLMRALKENEQMYTMAPQKKVPFAWCPPEALRHRKFSHASDVWSYGVTIWEVFTFGEEPWVGCRAIDVLKNIDAGERLEKPKYCSERIYQIMKNCWKFNPAERCKFGAIREDLVAAMFLDAVARETYNSIQPGALQLTKGDEVVVVENTGQDWFGQNKKNQKFGTFPRSVVFAQTNNAVAAATAVTPQKVPTAPTIRIPPSHPPPAPLKPLNNNTKTSLNDRTSKISMPVAGSFIHTGHGDPLGGQSWGNPATIADMYLKNPVNGAPLSSMSSGAEIIASKELLTNGGRSTHQP
B3: HA-DYN-1(aa 504–838) (domain or fragment, UniProt P39055-2 504-838)
chain: AKASQGQSAKKNLGNQVIRKGWLSLSNVSFVRGSKDNWFVLMSDSLSWYKDDEEKEKKYMLPLDGVKLKDIEGGFMSRNHKFALFYPDGKNIYKDYKQLELGCTNLDEIDAWKASFLRAGVYPEKQKAQEDESQQEMEDTSIDPQLERQVETIRNLVDSYMRIITKTIKDLVPKAVMHLIVNQTGEFMKDELLAHLYQCGDTDALMEESQIEAQKREEMLRMYHACKEALRIISEVNMSTLGDQPPPLPMSDYRPHPSGPSPVPRPAPAPPGGRQAPMPPRGGPGAPPPPGMRPPPGAPGGGGGMYPPLIPTRVPTPSNGAPEIPARPQVPKRPF

Legend:
GST-SID-3 (C. elegans) = molecular target: T1, GST-SID-3 (C. elegans); assay: pull-down; GST fusion on glutathione sepharose 4B beads; in vitro translated HA-tagged protein (15 μL TNT mix in 700 μL binding buffer) bound at 4°C overnight; washes in 50 mM Tris pH 8.0, 300 mM NaCl, 0.2% NP-40, 1 mM DTT; anti-HA blot; only the target purified
EHBP-1-GFP (C. elegans) = EHBP-1-GFP (C. elegans) (UniProt G5ECW3); assay: co-IP; whole-worm lysate of animals co-expressing SID-3-mCherry and EHBP-1-GFP (control: SID-3-mCherry only); GFP-Trap beads, 4°C, 6 hours; lysis buffer 25 mM Tris-HCl pH 7.5, 100 mM NaCl, 1 mM EDTA, 0.5% NP-40
GST-NCK-1 (C. elegans) = assay: pull-down; GST fusion on glutathione sepharose 4B beads; in vitro translated HA-tagged protein (15 μL TNT mix in 700 μL binding buffer) bound at 4°C overnight; washes in 50 mM Tris pH 8.0, 300 mM NaCl, 0.2% NP-40, 1 mM DTT; anti-HA blot; only the target purified

Row | binding (GST-SID-3 (C. elegans)) | binding (GST-NCK-1 (C. elegans)) | further results | Molecule
1 | no binding |  |  | HA-EHBP-1(aa 260–510) (C. elegans) (domain or fragment)
2 | no binding |  |  | HA-EHBP-1(aa 511–901) (C. elegans) (domain or fragment)
3 |  |  | binding (EHBP-1-GFP (C. elegans)): binds | B1
4 |  | binds |  | B2
5 |  | binds |  | B3
